Values from PubChem BioAssay AID1259254 (NCATS, 2017).

Assay: 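Gene knock-downs that lead to re-replication, shown by excess G2 DNA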 (primary screen)
Cell system: human HCT116 colorectal cancer cells
Reagent: single siRNA against human genes
Timing: 3 days
Read-out: 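Imaged Hoechst DNA stain sorts each cell into a cycle phase by DNA amount; per plate, G2 fraction set to 0% for non-targeting and 100% for GMNN siRNA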
Reading the numbers: G2 robust z-score and G2 cells, % of GMNN control: higher = more G2 cells, more excess DNA replication; raw share of cells in G2: higher = larger share of cells with G2 DNA content
Rule for the call: 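An siRNA counts as active if its G2 robust z-score lies at least 5 MADs above the screen median; here such calls match roughly 38% of GMNN control or more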
Here is one part, drawn at random, of about 59,000 reagents. About 1,550 of them (2.6%) were called active. 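G2 share is only a proxy for re-replication; each gene was hit by three separate siRNAs, and active genes were retested.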 Raw values are not corrected between plates. The numbers tell different reagents against one gene apart. Not stated in the record: the amount of reagent.

target gene	siRNA no.	G2 robust z-score	G2 cells, % of GMNN control	raw share of cells in G2 (%)	outcome
KBTBD7 (GeneID 84078)	1	0.645	7.51	6.61	inactive
KBTBD7 (GeneID 84078)	2	-0.11	2.19	4.11	inactive
KBTBD7 (GeneID 84078)	3	-0.13	2.05	3.03	inactive
CTPS1 (GeneID 1503)	1	0.691	7.83	7.76	inactive
CTPS1 (GeneID 1503)	2	-1.3	-6.15	1.98	inactive
CTPS1 (GeneID 1503)	3	0.399	5.78	7.1	inactive
TIMM50 (GeneID 92609)	1	-0.671	-1.75	3.34	inactive
TIMM50 (GeneID 92609)	2	-0.515	-0.658	2.79	inactive
TIMM50 (GeneID 92609)	3	1.67	14.7	7.6	inactive
CRABP2 (GeneID 1382)	1	-1.25	-5.85	2.08	inactive
CRABP2 (GeneID 1382)	2	0.212	4.46	6.55	inactive
CRABP2 (GeneID 1382)	3	5.9	44.5	21.2	active
SPRYD4 (GeneID 283377)	1	-0.713	-2.05	2.64	inactive
SPRYD4 (GeneID 283377)	2	-0.342	0.558	3.84	inactive
SPRYD4 (GeneID 283377)	3	-0.41	0.0854	3.08	inactive
ACBD6 (GeneID 84320)	1	-0.352	0.494	4.27	inactive
ACBD6 (GeneID 84320)	2	-0.87	-3.15	2.52	inactive
ACBD6 (GeneID 84320)	3	-0.688	-1.87	1.84	inactive
PTPN22 (GeneID 26191)	1	0.295	5.04	6.43	inactive
PTPN22 (GeneID 26191)	2	-1.24	-5.79	2.56	inactive
PTPN22 (GeneID 26191)	3	-0.379	0.298	3.59	inactive
ZNF782 (GeneID 158431)	1	-0.333	0.626	3.31	inactive
ZNF782 (GeneID 158431)	2	0.649	7.53	5.78	inactive
ZNF782 (GeneID 158431)	3	-0.13	2.05	4.25	inactive
NOB1 (GeneID 28987)	1	-0.234	1.32	3.26	inactive
NOB1 (GeneID 28987)	2	0.0691	3.45	7.47	inactive
NOB1 (GeneID 28987)	3	2.93	23.6	11	inactive

Continued, starting with the last 4 of the part before.
target gene	siRNA no.	G2 robust z-score	G2 cells, % of GMNN control	raw share of cells in G2 (%)	outcome
ZNF782 (GeneID 158431)	3	-0.13	2.05	4.25	inactive
NOB1 (GeneID 28987)	1	-0.234	1.32	3.26	inactive
NOB1 (GeneID 28987)	2	0.0691	3.45	7.47	inactive
NOB1 (GeneID 28987)	3	2.93	23.6	11	inactive
CLLU1-AS1 (GeneID 574016)	1	-0.2	1.56	4.22	inactive
CLLU1-AS1 (GeneID 574016)	2	0.0884	3.59	4.78	inactive
CLLU1-AS1 (GeneID 574016)	3	-0.102	2.25	3.88	inactive
DNAJC4 (GeneID 3338)	1	0.385	5.68	5.17	inactive
DNAJC4 (GeneID 3338)	2	-0.583	-1.13	3.01	inactive
DNAJC4 (GeneID 3338)	3	0.825	8.77	8.96	inactive
PCNT (GeneID 5116)	1	0.523	6.65	7.8	inactive
PCNT (GeneID 5116)	2	0.301	5.09	6.23	inactive
PCNT (GeneID 5116)	3	1.49	13.5	8.22	inactive
ODF4 (GeneID 146852)	1	0.279	4.93	5.48	inactive
ODF4 (GeneID 146852)	2	1.34	12.4	6.73	inactive
ODF4 (GeneID 146852)	3	2.42	20	10	inactive
SERPINA7 (GeneID 6906)	1	-0.224	1.39	5.46	inactive
SERPINA7 (GeneID 6906)	2	-0.165	1.81	5.37	inactive
SERPINA7 (GeneID 6906)	3	-1.27	-6	2.15	inactive
SLC25A23 (GeneID 79085)	1	-1.07	-4.59	3.75	inactive
SLC25A23 (GeneID 79085)	2	2.02	17.2	10.4	inactive
SLC25A23 (GeneID 79085)	3	-0.657	-1.65	3.62	inactive
RAP1GDS1 (GeneID 5910)	1	0.348	5.42	7.28	inactive
RAP1GDS1 (GeneID 5910)	2	1.65	14.6	9.99	inactive
RAP1GDS1 (GeneID 5910)	3	-0.144	1.95	4.06	inactive
